Test results published in publication PMC11941692.
Results are given in words; binding and its absence hold for the method and conditions named. In cells and extracts the contact can be indirect. Some results given as binding are weak or reduced against the parent protein; the word gives no strength.

Molecular target: EGFR, mouse, in cerebral cortex lysate (mouse (endogenous in C57BL/6 cerebral cortex)) (UniProt Q01279)
Experiment: co-IP; C57BL/6 mouse cerebral cortex lysates (1 mg/mL protein), ages 3 to 12 months; 2 ug anti-EGFR or anti-DYRK3 with protein G plus/protein A-agarose, overnight at 4 C, then immunoblot

binding: binds
B1: DYRK3, mouse, in cerebral cortex lysate (enzyme, UniProt Q922Y0 1-586)
chain: MGGAARDRGRKDAALPGAGLPPQQRRLGDGVYDTFMMIDETKGPPYSDTFSNPSEAPVSRRLNITTEPLTRGHTQHFVNGSEMKVEQLFQEFGNRRSNTLQSDGISNSEKSSPASQGKSSESLSAVKCNLSSRPSKVLPLTPEQALKQYKHHLTAYEKLEIVSYPEIYFVGPNAKKRQGVIGGPNNGGYDDADGAYIHVPRDHLAYRYEVLKIIGKGSFGQVARVYDHKLRQYVALKMVRNEKRFHRQAAEEIRILEHLKKQDKTGSMNVIHMLESFTFRNHVCMAFELLSIDLYELIKKNKFQGFSVQLVRKFAQSILQSLDALHKNKIIHCDLKPENILLKHHGRSATKVIDFGSSCFEYQKLYTYIQSRFYRAPEIILGCRYSTPIDIWSFGCILAELLTGQPLFPGEDEGDQLACMIELLGMPPQKLLEQSKRAKYFINSKGLPRYCSVSTQTDGRVVLLGGRSRRGKKRGPPGSKDWATALKGCGDYLFIEFLKRCLQWDPSARLTPAQALRHPWISKSTPKPLTMDKVPGKRVVNPTNAFQGLGSKLPPVVGIASKLKANLMSETSGSIPLCSVLPKLIS
